For 2 substances, binding results are on record in paper PMC10060208.

Sequences of proteins named here, by UniProt entry; tags and fusion partners are left off.
UniProt Q16875: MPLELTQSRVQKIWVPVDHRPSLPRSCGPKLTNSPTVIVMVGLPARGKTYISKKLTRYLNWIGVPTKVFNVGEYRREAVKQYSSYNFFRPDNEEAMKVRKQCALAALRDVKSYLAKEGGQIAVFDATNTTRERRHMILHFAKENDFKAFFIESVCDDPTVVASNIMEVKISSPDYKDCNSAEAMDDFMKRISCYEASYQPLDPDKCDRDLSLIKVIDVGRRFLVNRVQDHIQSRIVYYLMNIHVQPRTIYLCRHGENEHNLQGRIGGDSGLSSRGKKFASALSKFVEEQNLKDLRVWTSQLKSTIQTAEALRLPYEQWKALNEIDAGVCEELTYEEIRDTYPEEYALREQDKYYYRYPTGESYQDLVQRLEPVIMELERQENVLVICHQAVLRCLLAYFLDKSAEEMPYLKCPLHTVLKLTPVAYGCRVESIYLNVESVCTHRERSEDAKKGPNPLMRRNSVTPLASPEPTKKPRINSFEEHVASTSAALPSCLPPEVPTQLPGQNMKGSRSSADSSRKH

No constants are given. Whether binding was seen depends on the method and setting. For some assays here: In cells and extracts the contact can be indirect. Some entries that bind do so weakly or less than the wild type. For some assays here: Where a sequence is shown, tags or fusion partners need not be part of it.

The target of one assay is T1, GST-tagged Aurora-A (UniProt O14965).
T1 sequence: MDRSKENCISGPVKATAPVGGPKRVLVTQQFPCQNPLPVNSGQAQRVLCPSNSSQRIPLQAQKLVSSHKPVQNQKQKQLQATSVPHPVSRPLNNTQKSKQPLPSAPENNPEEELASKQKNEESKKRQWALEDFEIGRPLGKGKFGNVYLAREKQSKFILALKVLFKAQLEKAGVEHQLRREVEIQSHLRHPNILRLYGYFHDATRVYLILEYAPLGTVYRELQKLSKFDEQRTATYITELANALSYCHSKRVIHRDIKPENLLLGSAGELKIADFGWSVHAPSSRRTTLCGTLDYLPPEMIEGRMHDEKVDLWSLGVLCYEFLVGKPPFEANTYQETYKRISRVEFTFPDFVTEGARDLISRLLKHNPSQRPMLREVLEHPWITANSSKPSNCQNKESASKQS
As to the kind of experiment: pull-down; His-tagged PFKFB3 mixed with GST or GST-tagged Aurora-A in binding buffer at 4 °C overnight, glutathione-sepharose beads 2 h, washed five times with PBS; western blotting; both purified. In general terms: A western blot detects proteins with antibodies after separation by electrophoresis.

Assay [1] concerns the target T2, Aurora-A (human (endogenous in TPC-1)) (UniProt O14965).
T2 sequence: T1 sequence
As to the kind of experiment: co-IP; TPC-1 cells lysed with IP lysis buffer; lysates incubated with anti-Aurora-A antibody or PFKFB3 antibody overnight at 4 °C, protein A + G agarose beads 2 h at 4 °C, washed 3 times; western blotting.

“His-tagged PFKFB3 (from UniProt Q16875 1-520) (enzyme)”: the binding result in the assay with GST-tagged Aurora-A was “binds”.

Regarding “PFKFB3 (6-phosphofructo-2-kinase / fructose-2,6-bisphosphatase) (from UniProt Q16875 1-520)”, the binding result in assay [1] was “binds”.
